Residue numbers refer to the chain shown, from its start. No constants are given. Whether binding was seen depends on the method and setting. In cells and extracts the contact can be indirect. Some entries that bind do so weakly or less than the wild type. For some of these results: Where a sequence is shown, tags or fusion partners need not be part of it.
How the values were obtained:
[1] = target: T1, endogenous p38δ (mouse) (mouse (endogenous in MEF and heart)) (UniProt Q9Z1B7); assay: co-IP; endogenous p38γ (or p38δ) immunoprecipitated with specific antibodies from WT and p38γ/δ−/− MEF lysates; immunoblot of immunoprecipitates
T1 sequence: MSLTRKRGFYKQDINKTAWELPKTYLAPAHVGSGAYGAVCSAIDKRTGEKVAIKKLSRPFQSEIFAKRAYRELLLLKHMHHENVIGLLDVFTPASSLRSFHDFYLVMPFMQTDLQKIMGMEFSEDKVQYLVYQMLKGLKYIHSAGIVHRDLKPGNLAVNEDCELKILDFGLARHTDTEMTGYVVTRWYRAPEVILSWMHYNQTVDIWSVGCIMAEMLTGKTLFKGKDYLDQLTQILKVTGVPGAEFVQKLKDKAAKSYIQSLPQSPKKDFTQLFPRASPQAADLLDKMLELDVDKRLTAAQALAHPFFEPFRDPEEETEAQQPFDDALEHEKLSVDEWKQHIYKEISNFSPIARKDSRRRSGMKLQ

Protein sequences, listed by entry. Tags and fused reporters are not part of them. Lines headed by an entry give the natural chain unless they say otherwise; changes in a name come on top. Chains listed by the source or under a name are the forms on record and can include a tag or linker. Residues count along the entry.
UniProt Q8TB45: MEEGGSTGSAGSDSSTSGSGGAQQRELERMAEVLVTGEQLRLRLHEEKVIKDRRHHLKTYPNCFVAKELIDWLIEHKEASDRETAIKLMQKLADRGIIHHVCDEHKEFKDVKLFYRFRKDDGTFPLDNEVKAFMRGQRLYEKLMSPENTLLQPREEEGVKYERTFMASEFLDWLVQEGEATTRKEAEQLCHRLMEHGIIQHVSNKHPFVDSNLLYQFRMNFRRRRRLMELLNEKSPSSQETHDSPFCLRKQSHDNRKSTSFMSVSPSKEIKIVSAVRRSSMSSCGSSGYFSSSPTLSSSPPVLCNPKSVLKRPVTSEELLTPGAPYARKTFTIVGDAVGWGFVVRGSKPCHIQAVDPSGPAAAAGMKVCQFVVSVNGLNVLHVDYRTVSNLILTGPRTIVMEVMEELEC
Flag-tagged DEPTOR PDZ domain: residues 330-407 of Q8TB45
UniProt Q570Y9: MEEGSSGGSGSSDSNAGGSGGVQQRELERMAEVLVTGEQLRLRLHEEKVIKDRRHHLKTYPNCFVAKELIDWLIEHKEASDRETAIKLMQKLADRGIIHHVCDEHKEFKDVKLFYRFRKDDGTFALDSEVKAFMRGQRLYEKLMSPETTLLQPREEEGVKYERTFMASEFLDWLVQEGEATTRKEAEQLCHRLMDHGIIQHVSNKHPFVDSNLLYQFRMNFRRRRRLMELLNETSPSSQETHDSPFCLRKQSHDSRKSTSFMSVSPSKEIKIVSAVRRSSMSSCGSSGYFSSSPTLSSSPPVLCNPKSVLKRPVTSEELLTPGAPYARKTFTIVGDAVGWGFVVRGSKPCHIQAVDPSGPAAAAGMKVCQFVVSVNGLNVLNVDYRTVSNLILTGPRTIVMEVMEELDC
UniProt Q9DCJ1: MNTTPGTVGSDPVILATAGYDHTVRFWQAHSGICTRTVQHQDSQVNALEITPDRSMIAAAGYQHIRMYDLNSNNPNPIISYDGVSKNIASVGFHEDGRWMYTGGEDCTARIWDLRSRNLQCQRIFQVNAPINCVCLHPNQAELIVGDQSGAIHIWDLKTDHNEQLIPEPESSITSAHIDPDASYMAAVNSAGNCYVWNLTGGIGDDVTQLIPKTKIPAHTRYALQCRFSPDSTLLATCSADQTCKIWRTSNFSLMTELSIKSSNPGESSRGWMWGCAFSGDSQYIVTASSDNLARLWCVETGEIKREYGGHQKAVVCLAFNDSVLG
UniProt Q8K4Q0: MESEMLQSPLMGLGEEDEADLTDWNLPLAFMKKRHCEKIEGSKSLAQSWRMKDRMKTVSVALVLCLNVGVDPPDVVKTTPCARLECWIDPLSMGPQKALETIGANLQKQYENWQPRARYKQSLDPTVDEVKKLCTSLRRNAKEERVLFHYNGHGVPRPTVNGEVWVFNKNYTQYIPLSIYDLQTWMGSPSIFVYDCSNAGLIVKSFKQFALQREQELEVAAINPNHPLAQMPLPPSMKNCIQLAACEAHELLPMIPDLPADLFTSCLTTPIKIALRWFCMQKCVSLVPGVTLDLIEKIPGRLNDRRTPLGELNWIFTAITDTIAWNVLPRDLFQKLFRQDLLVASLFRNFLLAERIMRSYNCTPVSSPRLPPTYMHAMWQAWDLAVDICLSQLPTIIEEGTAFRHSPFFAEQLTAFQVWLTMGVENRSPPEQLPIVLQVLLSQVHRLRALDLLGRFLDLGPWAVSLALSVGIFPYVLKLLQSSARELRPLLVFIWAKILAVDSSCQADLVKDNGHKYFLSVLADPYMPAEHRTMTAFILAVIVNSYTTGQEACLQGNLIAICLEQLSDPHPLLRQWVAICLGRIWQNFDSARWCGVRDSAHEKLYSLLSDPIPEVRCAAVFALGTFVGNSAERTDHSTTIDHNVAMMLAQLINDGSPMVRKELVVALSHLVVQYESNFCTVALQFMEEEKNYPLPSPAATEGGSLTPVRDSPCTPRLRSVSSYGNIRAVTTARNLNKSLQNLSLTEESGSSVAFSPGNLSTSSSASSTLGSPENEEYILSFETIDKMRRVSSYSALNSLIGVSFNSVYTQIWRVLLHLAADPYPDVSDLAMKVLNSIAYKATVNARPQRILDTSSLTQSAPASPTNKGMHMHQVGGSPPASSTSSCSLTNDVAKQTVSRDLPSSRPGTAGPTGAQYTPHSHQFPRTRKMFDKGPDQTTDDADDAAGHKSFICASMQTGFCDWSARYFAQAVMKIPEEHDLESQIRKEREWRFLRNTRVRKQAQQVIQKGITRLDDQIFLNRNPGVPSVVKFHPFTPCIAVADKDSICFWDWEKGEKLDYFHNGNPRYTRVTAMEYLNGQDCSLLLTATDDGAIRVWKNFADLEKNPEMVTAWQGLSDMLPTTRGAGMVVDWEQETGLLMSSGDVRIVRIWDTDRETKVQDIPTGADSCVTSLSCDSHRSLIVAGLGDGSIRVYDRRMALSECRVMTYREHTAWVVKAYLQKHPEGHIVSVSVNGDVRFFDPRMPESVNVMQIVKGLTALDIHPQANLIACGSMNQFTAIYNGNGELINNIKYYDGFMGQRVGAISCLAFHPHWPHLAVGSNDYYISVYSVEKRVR
UniProt Q6QI06: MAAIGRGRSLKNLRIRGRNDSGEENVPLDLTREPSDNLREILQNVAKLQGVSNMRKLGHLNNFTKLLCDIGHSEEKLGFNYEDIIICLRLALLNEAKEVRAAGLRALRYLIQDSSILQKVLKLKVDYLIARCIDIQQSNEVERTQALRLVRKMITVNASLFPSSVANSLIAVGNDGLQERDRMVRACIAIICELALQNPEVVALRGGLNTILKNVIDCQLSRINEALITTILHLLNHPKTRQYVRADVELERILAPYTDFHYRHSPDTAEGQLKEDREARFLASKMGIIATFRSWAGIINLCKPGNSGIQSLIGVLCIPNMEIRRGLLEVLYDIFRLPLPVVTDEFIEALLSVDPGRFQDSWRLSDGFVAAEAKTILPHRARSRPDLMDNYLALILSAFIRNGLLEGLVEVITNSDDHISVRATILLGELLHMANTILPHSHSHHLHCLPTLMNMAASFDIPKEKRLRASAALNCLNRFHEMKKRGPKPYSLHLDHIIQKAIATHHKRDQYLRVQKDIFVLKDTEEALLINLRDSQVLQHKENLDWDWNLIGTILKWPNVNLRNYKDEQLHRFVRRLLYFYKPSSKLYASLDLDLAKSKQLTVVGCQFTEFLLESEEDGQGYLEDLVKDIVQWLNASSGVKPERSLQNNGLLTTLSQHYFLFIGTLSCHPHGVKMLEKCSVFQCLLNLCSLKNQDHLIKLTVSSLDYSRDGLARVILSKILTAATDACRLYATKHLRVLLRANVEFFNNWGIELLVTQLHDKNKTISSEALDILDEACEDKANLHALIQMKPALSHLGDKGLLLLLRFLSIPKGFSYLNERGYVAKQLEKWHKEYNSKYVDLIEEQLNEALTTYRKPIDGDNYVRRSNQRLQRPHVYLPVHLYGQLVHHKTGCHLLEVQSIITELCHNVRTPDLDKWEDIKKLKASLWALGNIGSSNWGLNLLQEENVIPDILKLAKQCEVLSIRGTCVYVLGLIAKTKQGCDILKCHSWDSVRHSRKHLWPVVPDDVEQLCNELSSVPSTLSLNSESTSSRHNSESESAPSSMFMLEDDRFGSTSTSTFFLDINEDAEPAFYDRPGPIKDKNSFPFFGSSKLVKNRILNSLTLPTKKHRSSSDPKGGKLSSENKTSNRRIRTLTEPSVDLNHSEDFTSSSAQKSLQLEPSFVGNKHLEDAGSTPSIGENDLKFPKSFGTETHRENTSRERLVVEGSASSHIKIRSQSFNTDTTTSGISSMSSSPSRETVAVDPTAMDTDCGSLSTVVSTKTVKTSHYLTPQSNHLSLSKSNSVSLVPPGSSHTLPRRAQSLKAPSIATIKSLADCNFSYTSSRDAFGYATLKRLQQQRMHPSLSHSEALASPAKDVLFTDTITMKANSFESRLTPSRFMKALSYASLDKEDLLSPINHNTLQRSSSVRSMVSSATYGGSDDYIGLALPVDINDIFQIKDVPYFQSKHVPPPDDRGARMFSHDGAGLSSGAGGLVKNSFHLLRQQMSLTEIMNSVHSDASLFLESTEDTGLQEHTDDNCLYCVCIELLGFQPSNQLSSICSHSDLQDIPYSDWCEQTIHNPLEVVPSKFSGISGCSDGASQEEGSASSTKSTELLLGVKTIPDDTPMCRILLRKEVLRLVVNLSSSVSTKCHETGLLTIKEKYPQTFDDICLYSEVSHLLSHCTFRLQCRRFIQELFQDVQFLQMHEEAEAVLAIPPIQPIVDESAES
UniProt Q8BKH7: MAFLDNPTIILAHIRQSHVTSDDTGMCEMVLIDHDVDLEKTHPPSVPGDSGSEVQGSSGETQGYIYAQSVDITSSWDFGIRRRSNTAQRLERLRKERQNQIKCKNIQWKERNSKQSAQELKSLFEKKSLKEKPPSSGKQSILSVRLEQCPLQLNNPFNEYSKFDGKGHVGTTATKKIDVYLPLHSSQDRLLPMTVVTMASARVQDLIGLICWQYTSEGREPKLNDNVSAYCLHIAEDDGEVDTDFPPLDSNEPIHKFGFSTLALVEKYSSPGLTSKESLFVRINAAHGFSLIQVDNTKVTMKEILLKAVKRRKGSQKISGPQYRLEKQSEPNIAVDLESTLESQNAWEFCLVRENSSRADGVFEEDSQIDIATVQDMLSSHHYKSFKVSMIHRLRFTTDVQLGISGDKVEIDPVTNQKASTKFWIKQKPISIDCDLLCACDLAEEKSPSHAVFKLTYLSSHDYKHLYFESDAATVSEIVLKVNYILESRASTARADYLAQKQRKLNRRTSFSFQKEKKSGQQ

[2] = target: T2, endogenous p38γ (mouse) (mouse (endogenous in MEF and heart)) (UniProt O08911); assay: as above
T2 sequence: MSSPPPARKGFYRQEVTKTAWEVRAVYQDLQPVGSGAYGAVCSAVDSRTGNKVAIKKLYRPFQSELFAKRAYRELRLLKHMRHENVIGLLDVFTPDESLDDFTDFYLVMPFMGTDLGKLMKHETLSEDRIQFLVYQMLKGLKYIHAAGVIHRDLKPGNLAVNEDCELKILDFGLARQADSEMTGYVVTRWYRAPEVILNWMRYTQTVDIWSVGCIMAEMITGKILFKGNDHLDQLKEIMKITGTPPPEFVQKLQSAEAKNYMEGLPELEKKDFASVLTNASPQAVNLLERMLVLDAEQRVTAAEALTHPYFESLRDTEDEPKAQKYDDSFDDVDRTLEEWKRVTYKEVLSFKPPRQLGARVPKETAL

[3] = target: T3, p38δ active mutant F324S (human), expressed in mouse heart from AAV-TnT-p38δact (human) (UniProt O15264); assay: co-IP; p38δ immunoprecipitated from hearts of 9-week-old p38γ/δ−/− mice infected with AAV-TnT-p38γact and AAV-TnT-p38δact; immunoblot
T3 sequence: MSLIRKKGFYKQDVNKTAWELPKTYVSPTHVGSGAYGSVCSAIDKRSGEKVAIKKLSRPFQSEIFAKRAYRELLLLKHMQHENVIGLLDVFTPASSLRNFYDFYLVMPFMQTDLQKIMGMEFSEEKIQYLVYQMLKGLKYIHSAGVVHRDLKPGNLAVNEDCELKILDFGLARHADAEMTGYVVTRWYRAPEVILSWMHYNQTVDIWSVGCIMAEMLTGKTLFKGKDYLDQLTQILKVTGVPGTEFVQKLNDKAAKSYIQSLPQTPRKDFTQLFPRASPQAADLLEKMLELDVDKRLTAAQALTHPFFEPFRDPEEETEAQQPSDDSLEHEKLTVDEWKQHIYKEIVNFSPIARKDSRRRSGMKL

[4] = target: T1, endogenous p38δ (mouse) (mouse (endogenous in MEF and heart)); assay: co-IP; WT mouse heart extracts in Triton lysis buffer with 0.3% Chaps; 4 μg specific antibody (p38γ or p38δ) coupled to protein-G-Sepharose, overnight at 4 °C; beads washed four times; immunoblot
[5] = target: T2, endogenous p38γ (mouse) (mouse (endogenous in MEF and heart)); assay: as above
[6] = target: Flag-tagged DEPTOR PDZ domain (UniProt Q8TB45); assay: co-IP; HEK-293 (HEK-293T) cells transfected with HA-p38γ or HA-p38δ, Flag-DEPTOR or its Flag-tagged domains and Myc-mTOR, alone or in combination; immunoprecipitation with anti-Flag or anti-c-myc; immunoblot
[7] = target: Flag-tagged DEPTOR (human) (human) (UniProt Q8TB45); assay: as above
[8] = target: T4, endogenous p38γ (HEK-293T) (human (endogenous in HEK-293T)) (UniProt P53778); assay: co-IP; endogenous p38γ immunoprecipitated from HEK-293T cells transfected with HA-p38δ; immunoblot
T4 sequence: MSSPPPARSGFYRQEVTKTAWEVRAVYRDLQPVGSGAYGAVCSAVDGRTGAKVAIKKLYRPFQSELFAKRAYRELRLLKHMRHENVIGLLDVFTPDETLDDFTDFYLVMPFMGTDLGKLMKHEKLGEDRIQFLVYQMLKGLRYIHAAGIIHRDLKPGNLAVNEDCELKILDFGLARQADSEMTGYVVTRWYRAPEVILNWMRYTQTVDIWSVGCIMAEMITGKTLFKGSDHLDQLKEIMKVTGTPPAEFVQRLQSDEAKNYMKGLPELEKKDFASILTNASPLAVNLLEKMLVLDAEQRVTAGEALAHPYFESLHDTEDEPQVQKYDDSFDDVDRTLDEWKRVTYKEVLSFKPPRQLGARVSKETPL

[9] = target: T2, endogenous p38γ (mouse) (mouse (endogenous in MEF and heart)); assay: co-IP; WT mouse heart extracts in Triton lysis buffer with 0.3% Chaps; 4 μg specific antibody (p38γ or p38δ) coupled to protein-G-Sepharose, overnight at 4 °C; beads washed four times; immunoblot; remark: listed apart in the source
[10] = target: T1, endogenous p38δ (mouse) (mouse (endogenous in MEF and heart)); assay: as above; remark: listed apart in the source

Molecule: endogenous DEPTOR (mouse) (from UniProt Q570Y9 1-409)
- binding [1]: binds
- binding [2]: binds
- binding [3]: binds
- binding [4]: binds
- binding [5]: binds

Molecule: endogenous GβL (mouse) (from UniProt Q9DCJ1 1-326)
- binding [5]: binds

Molecule: endogenous Raptor (mouse) (from UniProt Q8K4Q0 1-1335)
- binding [2]: binds
- binding [5]: binds

Molecule: endogenous Rictor (mouse) (from UniProt Q6QI06 1-1708)
- binding [2]: binds
- binding [5]: binds

Molecule: endogenous Sin-1 (mouse) (from UniProt Q8BKH7 1-522)
- binding [2]: binds
- binding [5]: binds

B1: HA-tagged p38δ (human) (protein, UniProt O15264 1-365)
chain: T3 sequence with S324F
- binding [6]: no binding
- binding [7]: binds
- binding [8]: binds

B2: endogenous p38δ (mouse) (protein, UniProt Q9Z1B7 1-366)
chain: T1 sequence
- binding [9]: binds

B3: endogenous p38γ (mouse) (protein, UniProt O08911 1-367)
chain: T2 sequence
- binding [10]: binds

B4: HA-tagged p38γ (human) (protein, UniProt P53778 1-367)
chain: T4 sequence
- binding [6]: binds
- binding [7]: binds

Reference: PMC5476828
